# Results as given in PMC4206862.
# Chains of the proteins cited; added tags and fusions are not shown.
# UniProt P55060: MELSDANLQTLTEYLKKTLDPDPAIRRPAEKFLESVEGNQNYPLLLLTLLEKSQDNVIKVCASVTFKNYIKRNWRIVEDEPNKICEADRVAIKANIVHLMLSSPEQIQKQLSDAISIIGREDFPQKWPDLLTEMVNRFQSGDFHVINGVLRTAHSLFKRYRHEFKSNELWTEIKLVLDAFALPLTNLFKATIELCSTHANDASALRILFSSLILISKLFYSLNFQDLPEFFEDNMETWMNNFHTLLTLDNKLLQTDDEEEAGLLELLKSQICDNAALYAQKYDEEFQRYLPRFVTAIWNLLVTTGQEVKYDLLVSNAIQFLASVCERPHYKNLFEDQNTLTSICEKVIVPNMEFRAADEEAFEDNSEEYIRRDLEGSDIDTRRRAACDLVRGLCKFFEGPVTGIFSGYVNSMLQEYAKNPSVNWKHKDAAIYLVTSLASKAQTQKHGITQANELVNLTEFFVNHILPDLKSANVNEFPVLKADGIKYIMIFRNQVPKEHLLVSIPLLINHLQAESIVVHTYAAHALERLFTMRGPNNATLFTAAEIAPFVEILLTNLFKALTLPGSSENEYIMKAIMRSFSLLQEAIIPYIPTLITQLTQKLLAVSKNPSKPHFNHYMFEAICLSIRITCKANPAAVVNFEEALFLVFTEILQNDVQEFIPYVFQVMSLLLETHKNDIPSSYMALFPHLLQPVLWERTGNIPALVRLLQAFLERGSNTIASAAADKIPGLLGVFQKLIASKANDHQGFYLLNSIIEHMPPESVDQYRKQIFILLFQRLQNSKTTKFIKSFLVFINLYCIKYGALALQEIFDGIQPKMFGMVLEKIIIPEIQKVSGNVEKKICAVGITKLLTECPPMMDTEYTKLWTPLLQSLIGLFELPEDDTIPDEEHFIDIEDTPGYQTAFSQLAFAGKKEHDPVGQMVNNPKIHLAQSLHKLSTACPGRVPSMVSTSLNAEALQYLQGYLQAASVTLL
# UniProt Q8WUM4: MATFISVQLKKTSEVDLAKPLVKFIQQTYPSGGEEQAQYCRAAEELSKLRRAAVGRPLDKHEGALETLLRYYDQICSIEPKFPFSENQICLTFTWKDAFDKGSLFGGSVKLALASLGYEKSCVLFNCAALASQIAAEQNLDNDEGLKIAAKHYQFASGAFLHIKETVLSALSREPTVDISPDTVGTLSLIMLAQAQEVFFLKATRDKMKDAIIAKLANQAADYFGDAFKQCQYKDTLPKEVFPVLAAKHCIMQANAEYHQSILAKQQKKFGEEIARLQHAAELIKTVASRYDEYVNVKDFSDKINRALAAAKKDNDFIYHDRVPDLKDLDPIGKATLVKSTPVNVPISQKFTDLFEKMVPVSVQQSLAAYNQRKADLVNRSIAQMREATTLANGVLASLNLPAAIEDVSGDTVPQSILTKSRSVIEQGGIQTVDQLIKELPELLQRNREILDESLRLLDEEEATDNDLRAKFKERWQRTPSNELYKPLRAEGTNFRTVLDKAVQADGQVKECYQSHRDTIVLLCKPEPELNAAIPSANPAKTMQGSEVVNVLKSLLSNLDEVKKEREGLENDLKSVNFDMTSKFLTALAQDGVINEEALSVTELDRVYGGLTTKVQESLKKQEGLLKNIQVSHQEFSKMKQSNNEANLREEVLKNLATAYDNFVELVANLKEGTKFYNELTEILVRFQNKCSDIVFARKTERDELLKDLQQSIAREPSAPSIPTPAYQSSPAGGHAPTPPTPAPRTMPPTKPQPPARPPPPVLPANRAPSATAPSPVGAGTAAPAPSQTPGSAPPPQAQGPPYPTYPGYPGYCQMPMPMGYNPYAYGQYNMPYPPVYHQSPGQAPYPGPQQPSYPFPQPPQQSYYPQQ
# UniProt Q99832: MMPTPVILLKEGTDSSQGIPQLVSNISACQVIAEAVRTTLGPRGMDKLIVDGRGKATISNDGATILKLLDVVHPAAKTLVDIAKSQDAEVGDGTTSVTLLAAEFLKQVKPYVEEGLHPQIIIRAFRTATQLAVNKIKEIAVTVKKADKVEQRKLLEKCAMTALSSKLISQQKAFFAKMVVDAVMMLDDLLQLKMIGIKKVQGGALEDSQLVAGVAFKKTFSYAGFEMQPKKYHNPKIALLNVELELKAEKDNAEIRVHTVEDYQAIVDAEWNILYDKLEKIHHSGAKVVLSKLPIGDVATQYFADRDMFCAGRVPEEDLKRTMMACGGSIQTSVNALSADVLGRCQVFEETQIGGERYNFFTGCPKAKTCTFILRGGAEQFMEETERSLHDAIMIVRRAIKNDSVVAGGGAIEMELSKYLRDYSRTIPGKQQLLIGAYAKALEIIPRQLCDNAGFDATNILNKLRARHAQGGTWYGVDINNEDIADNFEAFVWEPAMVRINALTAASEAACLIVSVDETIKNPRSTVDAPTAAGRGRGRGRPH
# UniProt P50990: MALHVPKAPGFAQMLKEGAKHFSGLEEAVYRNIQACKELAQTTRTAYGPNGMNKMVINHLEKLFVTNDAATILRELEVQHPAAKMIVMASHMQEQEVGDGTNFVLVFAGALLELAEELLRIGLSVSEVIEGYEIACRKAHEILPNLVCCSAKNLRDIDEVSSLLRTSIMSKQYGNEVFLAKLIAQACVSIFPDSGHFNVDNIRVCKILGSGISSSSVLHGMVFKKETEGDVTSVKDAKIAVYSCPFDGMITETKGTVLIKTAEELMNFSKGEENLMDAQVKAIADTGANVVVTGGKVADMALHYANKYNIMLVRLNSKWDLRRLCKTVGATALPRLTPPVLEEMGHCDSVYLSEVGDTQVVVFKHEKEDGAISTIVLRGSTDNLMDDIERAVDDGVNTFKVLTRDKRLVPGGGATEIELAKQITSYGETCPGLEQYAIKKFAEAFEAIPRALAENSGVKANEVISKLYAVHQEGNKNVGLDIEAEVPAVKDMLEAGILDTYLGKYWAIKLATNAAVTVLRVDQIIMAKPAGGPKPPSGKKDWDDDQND
# Like-named read-outs stand apart in the source and are kept apart here. Results are given in words; binding and its absence hold for the method and conditions named. In cells and extracts the contact can be indirect. A yes stands for co-enrichment or nearness to the bait. Other partners may have been found.
# How the values were obtained:
# [1] = target: Flag-epitope tagged FTO (fat mass and obesity-associated protein), WT full-length (UniProt Q9C0B1); test: affinity purification with mass spectrometry; IP of Flag-epitope tagged FTO from lysates of transiently transfected HEK-293 cells; gel bands digested, LC-MSMS; control: vector-transfected cells
# [2] = target: Flag-epitope tagged FTO (fat mass and obesity-associated protein), WT full-length (UniProt Q9C0B1); test: as above; remark: listed apart in the source
Molecule,binding [1],binding [2]
"Exportin 2 (XPO2), endogenous in HEK-293 cells (from UniProt P55060 1-971)",binds,–
Programmed cell death 6-interacting protein (from UniProt Q8WUM4 1-868),binds,–
T-complex protein subunit eta (from UniProt Q99832 1-543),binds,–
"Coatomer subunit delta (protein, UniProt P48444 1-511) MVLLAAAVCTKAGKAIVSRQFVEMTRTRIEGLLAAFPKLMNTGKQHTFVETESVRYVYQPMEKLYMVLITTKNSNILEDLETLRLFSRVIPEYCRALEENEISEHCFDLIFAFDEIVALGYRENVNLAQIRTFTEMDSHEEKVFRAVRETQEREAKAEMRRKAKELQQARRDAERQGKKAPGFGGFGSSAVSGGSTAAMITETIIETDKPKVAPAPARPSGPSKALKLGAKGKEVDNFVDKLKSEGETIMSSSMGKRTSEATKMHAPPINMESVHMKIEEKITLTCGRDGGLQNMELHGMIMLRISDDKYGRIRLHVENEDKKGVQLQTHPNVDKKLFTAESLIGLKNPEKSFPVNSDVGVLKWRLQTTEESFIPLTINCWPSESGNGCDVNIEYELQEDNLELNDVVITIPLPSGVGAPVIGEIDGEYRHDSRRNTLEWCLPVIDAKNKSGSLEFSIAGQPNDFFPVQVSFVSKKNYCNIQVTKVTQVDGNSPVRFSTETTFLVDKYEIL",–,binds

# Continued, values first:
binding [1],binding [2],Molecule
binds,–,T-complex protein 1 subunit theta (from UniProt P50990 1-548)
–,binds,"Methionyl-tRNA sythatase (protein, UniProt P56192 1-900) MRLFVSDGVPGCLPVLAAAGRARGRAEVLISTVGPEDCVVPFLTRPKVPVLQLDSGNYLFSTSAICRYFFLLSGWEQDDLTNQWLEWEATELQPALSAALYYLVVQGKKGEDVLGSVRRALTHIDHSLSRQNCPFLAGETESLADIVLWGALYPLLQDPAYLPEELSALHSWFQTLSTQEPCQRAAETVLKQQGVLALRPYLQKQPQPSPAEGRAVTNEPEEEELATLSEEEIAMAVTAWEKGLESLPPLRPQQNPVLPVAGERNVLITSALPYVNNVPHLGNIIGCVLSADVFARYSRLRQWNTLYLCGTDEYGTATETKALEEGLTPQEICDKYHIIHADIYRWFNISFDIFGRTTTPQQTKITQDIFQQLLKRGFVLQDTVEQLRCEHCARFLADRFVEGVCPFCGYEEARGDQCDKCGKLINAVELKKPQCKVCRSCPVVQSSQHLFLDLPKLEKRLEEWLGRTLPGSDWTPNAQFITRSWLRDGLKPRCITRDLKWGTPVPLEGFEDKVFYVWFDATIGYLSITANYTDQWERWWKNPEQVDLYQFMAKDNVPFHSLVFPCSALGAEDNYTLVSHLIATEYLNYEDGKFSKSRGVGVFGDMAQDTGIPADIWRFYLLYIRPEGQDSAFSWTDLLLKNNSELLNNLGNFINRAGMFVSKFFGGYVPEMVLTPDDQRLLAHVTLELQHYHQLLEKVRIRDALRSILTISRHGNQYIQVNEPWKRIKGSEADRQRAGTVTGLAVNIAALLSVMLQPYMPTVSATIQAQLQLPPPACSILLTNFLCTLPAGHQIGTVSPLFQKLENDQIESLRQRFGGGQAKTSPKPAVVETVTTAKPQQIQALMDEVTKQGNIVRELKAQKADKNEVAAEVAKLLDLKKQLAVAEGKPPEAPKGKKKK"
